Results on two molecules are retold here after paper doi:10.1101/2021.03.11.435014.

Chains of the proteins cited; added tags and fusions are not shown.
UniProt O15260: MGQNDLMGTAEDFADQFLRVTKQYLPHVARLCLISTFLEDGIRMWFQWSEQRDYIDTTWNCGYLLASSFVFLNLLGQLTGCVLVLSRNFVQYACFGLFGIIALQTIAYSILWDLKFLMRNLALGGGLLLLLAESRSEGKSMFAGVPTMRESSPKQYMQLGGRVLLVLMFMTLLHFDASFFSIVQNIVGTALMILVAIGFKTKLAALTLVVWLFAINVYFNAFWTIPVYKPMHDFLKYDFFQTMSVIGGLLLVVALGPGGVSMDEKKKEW

The assay deals with eGFP-Surf4 (human) (UniProt O15260). Put plainly: co-IP.

No constants are given. Whether binding was seen depends on the method and setting. In cells and extracts the contact can be indirect. Some entries that bind do so weakly or less than the wild type.

B1: Prosaposin-RUSH (Prosaposin-SBP-mCherry) (protein, UniProt P07602)
chain: GPVLGLKECTRGSAVWCQNVKTASDCGAVKHCLQTVWNKPTVKSLPCDICKDVVTAAGDMLKDNATEEEILVYLEKTCDWLPKPNMSASCKEIVDSYLPVILDIIKGEMSRPGEVCSALNLCESLQKHLAELNHQKQLESNKIPELDMTEVVAPFMANIPLLLYPQDGPRSKPQPKDNGDVCQDCIQMVTDIQTAVRTNSTFVQALVEHVKEECDRLGPGMADICKNYISQYSEIAIQMMMHMQPKEICALVGFCDEVKEMPMQTLVPAKVASKNVIPALELVEPIKKHEVPAKSDVYCEVCEFLVKEVTKLIDNNKTEKEILDAFDKMCSKLPKSLSEECQEVVDTYGSSILSILLEEVSPELVCSMLHLCSGTRLPALTVHVTQPKDGGFCEVCKKLVGYLDRNLEKNSTKQEILAALEKGCSFLPDPYQKQCDQFVAEYEPVLIEILVEVMDPSFVCLKIGACPSAHKPLLGTEKCIWGPSYWCQNTETAAQCNAVEHCKRHVWN
Regarding B1, the binding entry is “binds”.

B2: calnexin (protein, UniProt P27824 21-592)
chain: HDGHDDDVIDIEDDLDDVIEEVEDSKPDTTAPPSSPKVTYKAPVPTGEVYFADSFDRGTLSGWILSKAKKDDTDDEIAKYDGKWEVEEMKESKLPGDKGLVLMSRAKHHAISAKLNKPFLFDTKPLIVQYEVNFQNGIECGGAYVKLLSKTPELNLDQFHDKTPYTIMFGPDKCGEDYKLHFIFRHKNPKTGIYEEKHAKRPDADLKTYFTDKKTHLYTLILNPDNSFEILVDQSVVNSGNLLNDMTPPVNPSREIEDPEDRKPEDWDERPKIPDPEAVKPDDWDEDAPAKIPDEEATKPEGWLDDEPEYVPDPDAEKPEDWDEDMDGEWEAPQIANPRCESAPGCGVWQRPVIDNPNYKGKWKPPMIDNPSYQGIWKPRKIPNPDFFEDLEPFRMTPFSAIGLELWSMTSDIFFDNFIICADRRIVDDWANDGWGLKKAADGAAEPGVVGQMIEAAEERPWLWVVYILTVALPVFLVILFCCSGKKQTSGMEYKKTDAPQPDVKEEEEEKEEEKDKGDEEEEGEEKLEEKQKSDAEEDGGTVSQEEEDRKPKAEEDEILNRSPRNRKPRRE
Consider B2, for which the binding entry is “no binding”.
